Reference: patent US20010041708A1, “Compositions for preventing cellulite in mammalian skin” (Zen-Bio, Inc., priority 2000, published 2001)
At least one compound was matched to its structure with a doubt left.

Tested on: stromal vascular (SV) cells from human adipose tissue
Assay: Triglyceride (TG) content of differentiating primary cultures of SV cells
Format: cell-based
Conditions: Exp. 1
Description: Abdominal adipose tissue (Exp. 1-5) and thigh adipose tissue (Exp. 5b) were obtained from middle-aged females with body mass indexes <30.0 during liposuction or elective surgery. Subsequently, tissue was minced and enzymatically digested for 45 min in a Krebs-Ringer buffer containing 1 mg/mL collagenase (CLS-1, Worthington Biochemical Corp, Lakewood, N.J.), 15 mg/mL bovine serum albumin (BSA), 5 mM glucose and 100 mM HEPES (pH 7.4). Digestion was carried out at a 5 mL/1 g ratio (digestion solution: tissue mass). The digesta was then filtered through 200- and 60-micron mesh and pelleted at 600×g for 5 min. The SV cells were resuspended in a RBC lysis buffer for 10 min and then filtered and recentrifuged to remove contaminating endothelial cells. […]
Experiment 1 was designed to determine optimal culturing conditions during differentiation of primary cultures of SV cells isolated from human adipose tissue. […] The cultures were harvested on day 11-12 of differentiation and TG content and cell number were measured. […]
In Experiment 2 the impact of linoleic acid and the trans-10, cis-12 isomer of CLA on TG accumulation in these cells was examined. […] TG content and cell number were measured on day 11 of differentiation. […]

SMILES: CN(CCOc1ccc(CC2SC(=O)NC2=O)cc1)c1ccccn1 (centres unmarked) [BRL 49653]
- TG content with increasing TZD concentration (0, 1 or 10 uM TZD): increased the TG content
- TG content at 10 uM vs 1 uM TZD (seeding density 4×10^4): almost twice as much TG content
